Experimental data taken from patent US20250375528A1 (priority 2021, published 2025).
[ ]: non-standard residue; d: D form. ξ: configuration not given here. ξPhe(4-N(CH2CH2Cl)2) = NC(Cc1ccc(N(CCCl)CCCl)cc1)C(=O)O

Test: general procedure: Fmoc solid-phase peptide synthesis; Wang resin; HBTU/HOBT/DIEA
Conditions: whole synthesis, 214 nm

H-RQIKIWFWWRRMKWKK[ξPhe(4-N(CH2CH2Cl)2)]-OH
final HPLC purity: above 95%
